Measurements reported in PubChem BioAssay AID1224830 (NIAID, 2016)

Aim: 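Regulators of TLR4 signalling towards TNF-alpha in macrophage-like cells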 (primary screen)
Cell system: human THP-1 monocytic leukaemia cells, TNF dual-luciferase reporter clone, PMA-differentiated to macrophage-like cells
Reagents: siRNA pool against human genes, 50 nM
Time to read-out: LPS for 4 h, given about 3 days after siRNA transfection
Challenge: bacterial LPS (TLR4 ligand), 10 ng/ml
Measurement: 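TNF firefly reporter luminescence divided by renilla, normalised to the plate median, then turned into a robust z-score for each replicate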
Scale: TNF reporter robust z-score: higher = stronger TNF reporter response to LPS
Hit rule: 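a well is active when its z-score exceeds 2.8 or falls below -1.5; control wells carry no call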
In all, the deposit lists about 18,000 reagents; this is a part drawn at random. Over the whole deposit, about 2,900 (16%) got an active call. 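Calls are made per well; low scores hint the gene aids the LPS response, high scores that it dampens it.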 Repeated entries: four replicate wells of each siRNA pool. No sequences are given here.

ASMTL — TNF reporter robust z-score = -1.57; Call = active
ASMTL — TNF reporter robust z-score = -1.26; Call = inactive
ASMTL — TNF reporter robust z-score = -1.44; Call = inactive
ASMTL — TNF reporter robust z-score = -1.23; Call = inactive
WDR27 — TNF reporter robust z-score = 0; Call = inactive
WDR27 — TNF reporter robust z-score = 0.82; Call = inactive
WDR27 — TNF reporter robust z-score = 0.9; Call = inactive
WDR27 — TNF reporter robust z-score = 0.65; Call = inactive
EFTUD2 — TNF reporter robust z-score = -1.26; Call = inactive
EFTUD2 — TNF reporter robust z-score = -1.28; Call = inactive
EFTUD2 — TNF reporter robust z-score = 1.13; Call = inactive
EFTUD2 — TNF reporter robust z-score = -0.37; Call = inactive
SERHL — TNF reporter robust z-score = 0.86; Call = inactive
SERHL — TNF reporter robust z-score = 0.2; Call = inactive
SERHL — TNF reporter robust z-score = 0.12; Call = inactive
SERHL — TNF reporter robust z-score = -0.4; Call = inactive
OR8B12 — TNF reporter robust z-score = -0.89; Call = inactive
OR8B12 — TNF reporter robust z-score = -0.92; Call = inactive
OR8B12 — TNF reporter robust z-score = -1.52; Call = active
OR8B12 — TNF reporter robust z-score = -0.52; Call = inactive
FSCN2 — TNF reporter robust z-score = -0.25; Call = inactive
FSCN2 — TNF reporter robust z-score = -0.79; Call = inactive
FSCN2 — TNF reporter robust z-score = -0.16; Call = inactive
FSCN2 — TNF reporter robust z-score = 0.07; Call = inactive
PRXL2C — TNF reporter robust z-score = 0.86; Call = inactive
PRXL2C — TNF reporter robust z-score = 0.81; Call = inactive
PRXL2C — TNF reporter robust z-score = -0.16; Call = inactive
PRXL2C — TNF reporter robust z-score = 1.04; Call = inactive
PSPC1 — TNF reporter robust z-score = 0.85; Call = inactive
PSPC1 — TNF reporter robust z-score = 1.29; Call = inactive
PSPC1 — TNF reporter robust z-score = -0.18; Call = inactive
PSPC1 — TNF reporter robust z-score = 1.18; Call = inactive
ASB13 — TNF reporter robust z-score = -1.51; Call = active
ASB13 — TNF reporter robust z-score = -0.29; Call = inactive
ASB13 — TNF reporter robust z-score = 1.54; Call = inactive
ASB13 — TNF reporter robust z-score = -0.26; Call = inactive
ELOVL1 — TNF reporter robust z-score = 1.87; Call = inactive
ELOVL1 — TNF reporter robust z-score = 2.01; Call = inactive
ELOVL1 — TNF reporter robust z-score = 1.59; Call = inactive
ELOVL1 — TNF reporter robust z-score = 2.78; Call = inactive
LXN — TNF reporter robust z-score = 3.08; Call = active
LXN — TNF reporter robust z-score = 0.93; Call = inactive
LXN — TNF reporter robust z-score = 3.06; Call = active
LXN — TNF reporter robust z-score = 1.97; Call = inactive
GDNF — TNF reporter robust z-score = 0.64; Call = inactive
GDNF — TNF reporter robust z-score = 0.76; Call = inactive
GDNF — TNF reporter robust z-score = 2.92; Call = active
GDNF — TNF reporter robust z-score = 0.91; Call = inactive

Called active (from the list above):
ASMTL — TNF reporter robust z-score = -1.57; Call = active
OR8B12 — TNF reporter robust z-score = -1.52; Call = active
ASB13 — TNF reporter robust z-score = -1.51; Call = active
LXN — TNF reporter robust z-score = 3.08; Call = active
LXN — TNF reporter robust z-score = 3.06; Call = active
GDNF — TNF reporter robust z-score = 2.92; Call = active
